In paper doi:10.1101/2022.03.22.485398:
These are yes or no findings as the source states them, for the method shown. In cells and extracts the contact can be indirect. Some results given as binding are weak or reduced against the parent protein; the word gives no strength. Where a sequence is shown, tags or fusion partners need not be part of it.

Target: T1, 9B:nLUC (pro35S::9B:nLUC) (Arabidopsis) (UniProt Q9SL49)
T1 sequence: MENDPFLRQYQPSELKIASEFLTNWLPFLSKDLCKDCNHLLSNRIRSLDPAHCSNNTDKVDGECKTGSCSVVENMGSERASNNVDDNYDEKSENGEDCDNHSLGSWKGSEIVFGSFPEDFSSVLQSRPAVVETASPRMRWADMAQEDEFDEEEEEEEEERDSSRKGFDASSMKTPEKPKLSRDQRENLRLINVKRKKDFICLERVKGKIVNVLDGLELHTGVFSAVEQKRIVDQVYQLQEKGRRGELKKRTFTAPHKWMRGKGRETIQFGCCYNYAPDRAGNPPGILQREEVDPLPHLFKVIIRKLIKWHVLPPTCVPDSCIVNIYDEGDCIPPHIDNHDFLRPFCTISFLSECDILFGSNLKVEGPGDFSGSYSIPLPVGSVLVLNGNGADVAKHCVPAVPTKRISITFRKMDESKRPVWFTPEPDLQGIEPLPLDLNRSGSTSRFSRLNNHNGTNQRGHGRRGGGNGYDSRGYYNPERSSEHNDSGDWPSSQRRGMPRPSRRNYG
Experiment: split reporter

B1: cLUC:ECT2 (pro35S::cLUC:ECT2) (protein, UniProt Q9LJE5 1-667)
chain: MATVAPPADQATDLLQKLSLDSPAKASEIPEPNKKTAVYQYGGVDVHGQVPSYDRSLTPMLPSDAADPSVCYVPNPYNPYQYYNVYGSGQEWTDYPAYTNPEGVDMNSGIYGENGTVVYPQGYGYAAYPYSPATSPAPQLGGEGQLYGAQQYQYPNYFPNSGPYASSVATPTQPDLSANKPAGVKTLPADSNNVASAAGITKGSNGSAPVKPTNQATLNTSSNLYGMGAPGGGLAAGYQDPRYAYEGYYAPVPWHDGSKYSDVQRPVSGSGVASSYSKSSTVPSSRNQNYRSNSHYTSVHQPSSVTGYGTAQGYYNRMYQNKLYGQYGSTGRSALGYGSSGYDSRTNGRGWAATDNKYRSWGRGNSYYYGNENNVDGLNELNRGPRAKGTKNQKGNLDDSLEVKEQTGESNVTEVGEADNTCVVPDREQYNKEDFPVDYANAMFFIIKSYSEDDVHKSIKYNVWASTPNGNKKLAAAYQEAQQKAGGCPIFLFFSVNASGQFVGLAEMTGPVDFNTNVEYWQQDKWTGSFPLKWHIVKDVPNSLLKHITLENNENKPVTNSRDTQEVKLEQGLKIVKIFKEHSSKTCILDDFSFYEVRQKTILEKKAKQTQKQVSEEKVTDEKKESATAESASKESPAAVQTSSDVKVAENGSVAKPVTGDVVANGC
Question: B1 was tested. Which binding did it give?
Answer: The binding was “binds”.
